Laboratory results: the supplement of paper PMC10849652
Some of the results follow.

Sequences of proteins named here, by UniProt entry; tags and fusion partners are left off. A change or cut given only in a name is not applied to a line headed by its entry.
UniProt Q9BVK2: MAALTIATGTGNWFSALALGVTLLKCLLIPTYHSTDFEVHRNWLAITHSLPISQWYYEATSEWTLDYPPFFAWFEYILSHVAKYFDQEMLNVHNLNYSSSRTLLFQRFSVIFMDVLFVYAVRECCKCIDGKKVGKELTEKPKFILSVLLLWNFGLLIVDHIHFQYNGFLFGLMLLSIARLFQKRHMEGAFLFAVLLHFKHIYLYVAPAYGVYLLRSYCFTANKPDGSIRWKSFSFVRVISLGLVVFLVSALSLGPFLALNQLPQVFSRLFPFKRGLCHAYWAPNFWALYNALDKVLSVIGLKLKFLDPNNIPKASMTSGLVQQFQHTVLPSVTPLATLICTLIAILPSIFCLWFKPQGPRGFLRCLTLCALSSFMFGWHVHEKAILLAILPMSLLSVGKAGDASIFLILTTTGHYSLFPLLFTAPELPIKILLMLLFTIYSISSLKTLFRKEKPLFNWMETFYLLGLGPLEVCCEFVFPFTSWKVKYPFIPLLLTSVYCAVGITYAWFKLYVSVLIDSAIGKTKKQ
UniProt Q96Q42: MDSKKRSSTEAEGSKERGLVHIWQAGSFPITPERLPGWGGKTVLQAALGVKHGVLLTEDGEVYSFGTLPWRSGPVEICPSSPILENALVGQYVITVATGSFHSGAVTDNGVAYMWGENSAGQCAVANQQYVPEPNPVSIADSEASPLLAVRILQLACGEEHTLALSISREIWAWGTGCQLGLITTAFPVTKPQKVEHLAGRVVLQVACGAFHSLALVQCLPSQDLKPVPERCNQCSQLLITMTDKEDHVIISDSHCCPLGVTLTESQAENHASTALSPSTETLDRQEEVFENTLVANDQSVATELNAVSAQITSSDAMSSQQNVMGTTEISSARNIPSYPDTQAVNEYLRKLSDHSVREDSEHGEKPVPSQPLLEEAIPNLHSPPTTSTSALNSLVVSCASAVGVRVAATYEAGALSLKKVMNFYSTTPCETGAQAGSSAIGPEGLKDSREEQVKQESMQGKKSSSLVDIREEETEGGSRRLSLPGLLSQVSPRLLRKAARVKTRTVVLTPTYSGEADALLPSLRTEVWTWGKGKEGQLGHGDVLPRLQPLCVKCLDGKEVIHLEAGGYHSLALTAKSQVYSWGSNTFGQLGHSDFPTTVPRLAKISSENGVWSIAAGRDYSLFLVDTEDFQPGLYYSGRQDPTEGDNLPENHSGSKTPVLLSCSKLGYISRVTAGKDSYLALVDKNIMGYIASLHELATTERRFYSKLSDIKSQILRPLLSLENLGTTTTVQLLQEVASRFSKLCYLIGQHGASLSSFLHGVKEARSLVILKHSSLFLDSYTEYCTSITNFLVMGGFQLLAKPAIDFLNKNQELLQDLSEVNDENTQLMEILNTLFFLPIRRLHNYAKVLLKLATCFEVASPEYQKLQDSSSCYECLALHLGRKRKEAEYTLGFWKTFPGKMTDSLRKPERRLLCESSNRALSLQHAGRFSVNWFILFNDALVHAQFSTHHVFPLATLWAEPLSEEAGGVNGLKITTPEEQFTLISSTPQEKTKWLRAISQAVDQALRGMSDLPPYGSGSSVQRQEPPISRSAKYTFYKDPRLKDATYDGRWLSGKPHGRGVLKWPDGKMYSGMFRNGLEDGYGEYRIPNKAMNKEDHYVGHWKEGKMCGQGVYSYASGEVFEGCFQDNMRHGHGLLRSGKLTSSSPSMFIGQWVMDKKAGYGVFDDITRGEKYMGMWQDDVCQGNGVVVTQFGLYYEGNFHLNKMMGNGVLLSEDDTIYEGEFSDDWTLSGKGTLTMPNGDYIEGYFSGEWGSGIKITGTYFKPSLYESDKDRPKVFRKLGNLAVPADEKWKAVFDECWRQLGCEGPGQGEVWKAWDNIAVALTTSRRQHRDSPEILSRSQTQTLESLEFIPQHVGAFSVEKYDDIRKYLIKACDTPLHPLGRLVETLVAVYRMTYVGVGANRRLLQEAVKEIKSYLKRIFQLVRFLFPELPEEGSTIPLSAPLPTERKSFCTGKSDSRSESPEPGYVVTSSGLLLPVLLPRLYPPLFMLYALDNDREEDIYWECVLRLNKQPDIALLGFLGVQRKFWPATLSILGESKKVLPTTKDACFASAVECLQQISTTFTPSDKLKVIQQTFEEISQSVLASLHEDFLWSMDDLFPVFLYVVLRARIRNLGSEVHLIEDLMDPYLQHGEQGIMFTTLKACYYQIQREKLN
UniProt P20073: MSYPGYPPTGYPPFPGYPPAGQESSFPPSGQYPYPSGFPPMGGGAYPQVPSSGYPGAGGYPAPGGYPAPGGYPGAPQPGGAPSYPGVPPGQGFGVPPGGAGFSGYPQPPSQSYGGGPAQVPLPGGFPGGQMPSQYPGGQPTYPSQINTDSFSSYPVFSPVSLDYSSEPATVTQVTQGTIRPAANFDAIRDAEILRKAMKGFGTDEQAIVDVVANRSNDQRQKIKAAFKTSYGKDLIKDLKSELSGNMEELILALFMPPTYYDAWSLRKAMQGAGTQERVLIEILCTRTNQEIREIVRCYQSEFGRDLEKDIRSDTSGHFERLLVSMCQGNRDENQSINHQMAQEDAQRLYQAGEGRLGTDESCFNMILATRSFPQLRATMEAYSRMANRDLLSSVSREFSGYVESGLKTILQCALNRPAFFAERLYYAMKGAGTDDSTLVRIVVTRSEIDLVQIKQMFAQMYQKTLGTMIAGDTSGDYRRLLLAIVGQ
UniProt Q6NS38: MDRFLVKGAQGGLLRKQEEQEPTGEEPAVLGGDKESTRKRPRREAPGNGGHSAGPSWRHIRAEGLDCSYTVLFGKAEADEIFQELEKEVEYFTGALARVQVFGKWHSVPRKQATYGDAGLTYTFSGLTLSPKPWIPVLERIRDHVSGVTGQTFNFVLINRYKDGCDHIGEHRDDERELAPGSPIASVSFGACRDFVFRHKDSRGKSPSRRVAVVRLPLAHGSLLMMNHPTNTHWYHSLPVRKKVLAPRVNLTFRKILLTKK
UniProt Q6ZTN6: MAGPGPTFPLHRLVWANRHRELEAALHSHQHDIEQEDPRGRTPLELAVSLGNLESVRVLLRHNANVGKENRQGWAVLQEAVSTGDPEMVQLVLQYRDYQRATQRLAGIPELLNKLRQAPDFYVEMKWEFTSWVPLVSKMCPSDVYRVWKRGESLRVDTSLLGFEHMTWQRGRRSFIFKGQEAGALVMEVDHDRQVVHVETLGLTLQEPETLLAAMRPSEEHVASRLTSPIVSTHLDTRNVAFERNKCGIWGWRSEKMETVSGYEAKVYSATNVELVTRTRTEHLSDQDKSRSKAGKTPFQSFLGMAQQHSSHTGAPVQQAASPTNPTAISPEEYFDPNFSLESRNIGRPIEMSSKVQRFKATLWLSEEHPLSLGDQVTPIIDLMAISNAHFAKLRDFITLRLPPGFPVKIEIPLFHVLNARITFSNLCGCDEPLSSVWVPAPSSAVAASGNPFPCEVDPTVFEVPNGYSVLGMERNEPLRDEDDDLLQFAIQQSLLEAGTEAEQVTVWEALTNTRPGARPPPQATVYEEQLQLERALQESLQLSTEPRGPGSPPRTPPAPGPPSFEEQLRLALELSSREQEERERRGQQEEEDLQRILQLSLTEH
UniProt P17707: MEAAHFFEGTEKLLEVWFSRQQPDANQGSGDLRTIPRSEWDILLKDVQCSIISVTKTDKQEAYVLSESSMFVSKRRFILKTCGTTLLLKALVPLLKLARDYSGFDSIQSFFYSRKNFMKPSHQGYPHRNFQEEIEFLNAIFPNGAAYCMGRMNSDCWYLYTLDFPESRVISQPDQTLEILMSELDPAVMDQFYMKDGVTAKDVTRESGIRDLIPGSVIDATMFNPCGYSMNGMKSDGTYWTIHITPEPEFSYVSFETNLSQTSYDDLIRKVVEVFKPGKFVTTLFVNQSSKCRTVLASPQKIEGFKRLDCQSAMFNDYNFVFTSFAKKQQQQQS
UniProt Q9UJX6, whole entry, looked up: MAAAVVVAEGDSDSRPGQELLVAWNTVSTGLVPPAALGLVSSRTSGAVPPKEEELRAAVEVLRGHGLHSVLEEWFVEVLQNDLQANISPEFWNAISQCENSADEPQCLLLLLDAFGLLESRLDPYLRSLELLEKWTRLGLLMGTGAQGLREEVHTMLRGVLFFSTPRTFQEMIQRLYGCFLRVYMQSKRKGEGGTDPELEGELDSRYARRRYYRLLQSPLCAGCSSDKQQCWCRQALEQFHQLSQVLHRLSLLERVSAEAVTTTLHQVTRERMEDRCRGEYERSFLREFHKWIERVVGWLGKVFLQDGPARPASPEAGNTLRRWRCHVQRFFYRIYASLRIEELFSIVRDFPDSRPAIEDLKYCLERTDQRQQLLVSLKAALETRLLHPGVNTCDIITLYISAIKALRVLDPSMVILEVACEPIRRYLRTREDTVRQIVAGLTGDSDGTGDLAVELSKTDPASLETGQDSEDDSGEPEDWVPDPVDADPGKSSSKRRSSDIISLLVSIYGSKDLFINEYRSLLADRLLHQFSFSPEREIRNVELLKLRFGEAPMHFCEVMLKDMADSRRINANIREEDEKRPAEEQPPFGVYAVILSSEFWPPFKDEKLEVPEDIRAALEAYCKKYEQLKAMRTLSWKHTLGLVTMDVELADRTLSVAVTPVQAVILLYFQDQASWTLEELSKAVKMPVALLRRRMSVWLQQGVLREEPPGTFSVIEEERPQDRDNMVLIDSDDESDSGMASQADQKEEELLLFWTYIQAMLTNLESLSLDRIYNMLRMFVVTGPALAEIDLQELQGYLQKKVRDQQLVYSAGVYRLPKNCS
UniProt Q8WVL7: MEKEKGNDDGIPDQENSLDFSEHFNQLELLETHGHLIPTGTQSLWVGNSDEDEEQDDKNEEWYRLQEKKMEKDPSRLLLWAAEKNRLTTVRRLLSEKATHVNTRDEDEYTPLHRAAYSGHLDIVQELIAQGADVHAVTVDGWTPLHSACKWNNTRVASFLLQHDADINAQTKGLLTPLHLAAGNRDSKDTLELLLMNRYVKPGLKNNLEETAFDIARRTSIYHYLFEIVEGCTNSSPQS
UniProt P07355, whole entry, looked up: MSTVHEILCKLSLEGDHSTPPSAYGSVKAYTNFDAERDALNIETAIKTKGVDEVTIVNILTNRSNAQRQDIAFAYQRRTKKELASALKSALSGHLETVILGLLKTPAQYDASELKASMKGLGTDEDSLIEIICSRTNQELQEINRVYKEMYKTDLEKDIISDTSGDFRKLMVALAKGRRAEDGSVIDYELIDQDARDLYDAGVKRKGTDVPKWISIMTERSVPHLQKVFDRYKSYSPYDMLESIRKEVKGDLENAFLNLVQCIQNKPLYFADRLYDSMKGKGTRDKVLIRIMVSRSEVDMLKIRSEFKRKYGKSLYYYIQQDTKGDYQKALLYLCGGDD
UniProt O43747: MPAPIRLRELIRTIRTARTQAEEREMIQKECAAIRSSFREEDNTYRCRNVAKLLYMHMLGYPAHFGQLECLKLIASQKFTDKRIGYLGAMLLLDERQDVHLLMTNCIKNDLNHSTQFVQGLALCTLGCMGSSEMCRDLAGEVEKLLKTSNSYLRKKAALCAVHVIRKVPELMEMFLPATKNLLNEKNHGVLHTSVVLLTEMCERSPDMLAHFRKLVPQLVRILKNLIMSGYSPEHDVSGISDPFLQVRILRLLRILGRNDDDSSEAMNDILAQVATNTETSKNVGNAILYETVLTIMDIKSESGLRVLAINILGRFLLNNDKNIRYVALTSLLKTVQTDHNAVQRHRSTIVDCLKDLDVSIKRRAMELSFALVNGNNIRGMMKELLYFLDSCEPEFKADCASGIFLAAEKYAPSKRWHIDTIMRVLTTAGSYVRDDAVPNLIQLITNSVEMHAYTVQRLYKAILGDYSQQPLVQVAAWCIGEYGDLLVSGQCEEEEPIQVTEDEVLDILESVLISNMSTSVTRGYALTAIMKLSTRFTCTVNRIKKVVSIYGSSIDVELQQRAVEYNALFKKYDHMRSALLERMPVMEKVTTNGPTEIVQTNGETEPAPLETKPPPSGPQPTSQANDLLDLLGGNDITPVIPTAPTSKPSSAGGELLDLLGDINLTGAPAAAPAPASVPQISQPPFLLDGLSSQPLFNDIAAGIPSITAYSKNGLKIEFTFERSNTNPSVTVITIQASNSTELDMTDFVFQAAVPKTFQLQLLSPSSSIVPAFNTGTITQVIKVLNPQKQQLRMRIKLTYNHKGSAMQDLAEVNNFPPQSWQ
UniProt P56377: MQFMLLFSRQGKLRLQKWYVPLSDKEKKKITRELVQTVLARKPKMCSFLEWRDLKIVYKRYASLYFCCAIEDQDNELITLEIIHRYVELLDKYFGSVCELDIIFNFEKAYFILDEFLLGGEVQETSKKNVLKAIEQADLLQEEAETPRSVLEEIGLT

Compound: Cn1cncc1[C@@](N)(c1ccc(Cl)cc1)c1ccc2c(c1)c(-c1cccc(Cl)c1)cc(=O)n2C [tipifarnib]
Assay: log2 fold change, soluble protein after heating vs DMSO (PISA); higher = thermal stabilisation; K562 lysate, 10 uM; active = over 0.2 and 3.5 SD of the protein, either way, in both replicates (recomputed)
How it was run: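 Dounce homogenisation of K562 pellets in PBS pH 7.4 with 1 mM MgCl2 produced a crude extract, used at 1 mg/mL protein. Exposure to 10 μM compound lasted 30 min, and aliquots were then heated for 3 min across 48°C-58°C, pooled and brought to 0.5% NP-40 at 4°C. The supernatant after 21,000xg for 90 min was quantified by TMTpro 16plex LC-MS/MS with channel sums equalised. Duplicate values are given as log-two fold change in thermal stability relative to solvent controls.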

Target | log2 fold change
ALDH4A1 (UniProt P30038) | inactive: -0.022
ALG8 (UniProt Q9BVK2) | inactive: -0.165
AP3M1 (UniProt Q9Y2T2) | inactive: 0.008
ALS2 (UniProt Q96Q42) | inactive: -0.111
ANXA7 (UniProt P20073) | inactive: 0.03
ALKBH2 (UniProt Q6NS38) | inactive: -0.112
ANKRD13D isoform 3 (UniProt Q6ZTN6) | inactive: -0.078
AMD1 (UniProt P17707) | inactive: -0.005
AKT1S1 isoform 3 (UniProt Q96B36) | inactive: -0.037
ANO6 (UniProt Q4KMQ2) | inactive: 0.038
ANAPC2 (UniProt Q9UJX6) | inactive: 0.005
ANP32E (UniProt Q9BTT0) | inactive: -0.02
ANKRD49 (UniProt Q8WVL7) | inactive: -0.004
AP2S1 (UniProt P53680) | inactive: 0.018
ANXA2 isoform 2 (UniProt P07355) | inactive: 0.016
ANKRD28 (UniProt O15084) | inactive: -0.029
ALDH16A1 (UniProt Q8IZ83) | inactive: -0.023
ANKMY2 (UniProt Q8IV38) | inactive: -0.005
AP1G1 isoform 2 (UniProt O43747) | inactive: -0.004
ANKRD52 (UniProt Q8NB46) | inactive: -0.017
ALDH2 (UniProt P05091) | inactive: 0.039
ANK3 (UniProt Q12955) | inactive: 0
AP1S2 isoform 2 (UniProt P56377) | inactive: 0.004

Two records picked at random from those above:
Target | log2 fold change
ANKRD13D isoform 3 (UniProt Q6ZTN6) | inactive: -0.078
ALG8 (UniProt Q9BVK2) | inactive: -0.165
